The test addresses T1, BRCA1-associated protein (BRAP) from HeLa cell extract (UniProt Q7Z569).
T1 sequence (looked up): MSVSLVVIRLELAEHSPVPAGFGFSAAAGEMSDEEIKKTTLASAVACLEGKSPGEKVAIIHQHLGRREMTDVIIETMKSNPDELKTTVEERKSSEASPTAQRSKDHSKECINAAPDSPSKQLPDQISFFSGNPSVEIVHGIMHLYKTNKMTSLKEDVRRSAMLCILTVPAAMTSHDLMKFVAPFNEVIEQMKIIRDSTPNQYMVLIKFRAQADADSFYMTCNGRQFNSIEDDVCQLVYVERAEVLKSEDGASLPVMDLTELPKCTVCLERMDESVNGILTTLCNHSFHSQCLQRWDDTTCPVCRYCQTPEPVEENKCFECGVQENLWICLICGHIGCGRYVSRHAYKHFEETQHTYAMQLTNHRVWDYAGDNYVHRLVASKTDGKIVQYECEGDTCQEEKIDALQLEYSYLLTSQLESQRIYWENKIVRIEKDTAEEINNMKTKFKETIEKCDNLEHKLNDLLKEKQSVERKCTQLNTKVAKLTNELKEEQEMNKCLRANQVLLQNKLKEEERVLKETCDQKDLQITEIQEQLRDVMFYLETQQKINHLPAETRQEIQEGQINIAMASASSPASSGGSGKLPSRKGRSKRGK
Briefly: tandem affinity purification from transfected HeLa cells, MALDI/TOF mass spectrometry.

No constants are given. Whether binding was seen depends on the method and setting. Binding seen in cells or lysates may run through a third protein. A yes stands for co-enrichment or nearness to the bait. Other partners may have been found. Sequences can lack the tags named with a protein.

B1: galectin-2 expressed from the galectin-2 TAP vector (Myc tag at the N-terminus, TAP tag at the C-terminus) (protein, UniProt P05162 1-132, looked up, not shown: small tags and cut ends)
chain: MTGELEVKNMDMKPGSTLKITGSIADGTDGFVINLGQGTDKLNLHFNPRFSESTIVCNSLDGSNWGQEQREDHLCFSPGSEVKFTVTFESDKFKVKLPDGHELTFPNRLGHSHLSYLSVRGGFNMSSFKLKE
Turning to B1, the binding result was “binds”.

The record behind these values is patent US20110129826A1.
